These are yes or no findings as the source states them, for the method shown. Some entries that bind do so weakly or less than the wild type.
Biological target: Cren7 (Sulfolobus islandicus) (UniProt C3MPN0)
Test: cross-linking; 0.5 mg/ml protein in 50 mM HEPES-KOH pH 7.8, 150 mM NaCl, DSS, 1 h at room temperature; trypsin digest, nano-LC-MS/MS, pLink 2.0; only two cross-linked peptides with the same lysine taken as intermolecular; both purified

binding: binds
B1: Cren7 (protein, UniProt C3MPN0 8-60)
chain: VKVKTPAGKEAELVPEKVWALAPKGRKGVKIGLFKDPETGKYFRHKLPDDYPI
